Results reported in article PMC5386304.
Residue numbers refer to the chain shown, from its start. No constants are given. Whether binding was seen depends on the method and setting. Binding seen in cells or lysates may run through a third protein. Some binding calls cover weakened binding; strength is not graded here. Tags and fused reporters may be left off the sequences shown.

Legend:
Test in all cases: co-IP; NT2/D1 cells co-transfected with FLAG-SEPT12 and a GFP-SEPT12 plasmid; lysates immunoprecipitated with anti-GFP or reciprocally with anti-FLAG; blots with anti-FLAG and anti-GFP
GFP-SEPT12WT (human) = molecular target: T1, GFP-SEPT12WT (human) (UniProt Q8IYM1)
T1 sequence: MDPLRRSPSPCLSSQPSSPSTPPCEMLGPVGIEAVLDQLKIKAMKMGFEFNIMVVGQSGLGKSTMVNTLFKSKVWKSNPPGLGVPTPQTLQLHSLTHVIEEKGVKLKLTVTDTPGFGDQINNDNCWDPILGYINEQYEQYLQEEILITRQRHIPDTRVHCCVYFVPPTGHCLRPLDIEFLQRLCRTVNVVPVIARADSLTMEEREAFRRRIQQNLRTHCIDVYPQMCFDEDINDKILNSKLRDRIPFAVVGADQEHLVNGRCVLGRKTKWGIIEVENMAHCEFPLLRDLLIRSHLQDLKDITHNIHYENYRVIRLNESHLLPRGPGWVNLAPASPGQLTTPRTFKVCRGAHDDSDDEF

GFP-SEPT12S198E (human) = molecular target: T2, GFP-SEPT12S198E (human) (UniProt Q8IYM1)
T2 sequence: T1 sequence with S198E

GFP-SEPT12S198D (human) = molecular target: T3, GFP-SEPT12S198D (human) (UniProt Q8IYM1)
T3 sequence: T1 sequence with S198D

Measured: binding

B1: FLAG-SEPT12WT (protein, UniProt Q8IYM1 1-358)
chain: T1 sequence
binds: all assays above
